Reference: paper doi:10.1101/2025.07.24.666629
No constants are given. Whether binding was seen depends on the method and setting. Binding seen in cells or lysates may run through a third protein. A result given as binding can be weak or reduced; the word gives no strength.

Sequences of proteins named here, by UniProt entry; tags and fusion partners are left off. A change or cut given only in a name is not applied to a line headed by its entry. Residues count along the entry.
UniProt P42858: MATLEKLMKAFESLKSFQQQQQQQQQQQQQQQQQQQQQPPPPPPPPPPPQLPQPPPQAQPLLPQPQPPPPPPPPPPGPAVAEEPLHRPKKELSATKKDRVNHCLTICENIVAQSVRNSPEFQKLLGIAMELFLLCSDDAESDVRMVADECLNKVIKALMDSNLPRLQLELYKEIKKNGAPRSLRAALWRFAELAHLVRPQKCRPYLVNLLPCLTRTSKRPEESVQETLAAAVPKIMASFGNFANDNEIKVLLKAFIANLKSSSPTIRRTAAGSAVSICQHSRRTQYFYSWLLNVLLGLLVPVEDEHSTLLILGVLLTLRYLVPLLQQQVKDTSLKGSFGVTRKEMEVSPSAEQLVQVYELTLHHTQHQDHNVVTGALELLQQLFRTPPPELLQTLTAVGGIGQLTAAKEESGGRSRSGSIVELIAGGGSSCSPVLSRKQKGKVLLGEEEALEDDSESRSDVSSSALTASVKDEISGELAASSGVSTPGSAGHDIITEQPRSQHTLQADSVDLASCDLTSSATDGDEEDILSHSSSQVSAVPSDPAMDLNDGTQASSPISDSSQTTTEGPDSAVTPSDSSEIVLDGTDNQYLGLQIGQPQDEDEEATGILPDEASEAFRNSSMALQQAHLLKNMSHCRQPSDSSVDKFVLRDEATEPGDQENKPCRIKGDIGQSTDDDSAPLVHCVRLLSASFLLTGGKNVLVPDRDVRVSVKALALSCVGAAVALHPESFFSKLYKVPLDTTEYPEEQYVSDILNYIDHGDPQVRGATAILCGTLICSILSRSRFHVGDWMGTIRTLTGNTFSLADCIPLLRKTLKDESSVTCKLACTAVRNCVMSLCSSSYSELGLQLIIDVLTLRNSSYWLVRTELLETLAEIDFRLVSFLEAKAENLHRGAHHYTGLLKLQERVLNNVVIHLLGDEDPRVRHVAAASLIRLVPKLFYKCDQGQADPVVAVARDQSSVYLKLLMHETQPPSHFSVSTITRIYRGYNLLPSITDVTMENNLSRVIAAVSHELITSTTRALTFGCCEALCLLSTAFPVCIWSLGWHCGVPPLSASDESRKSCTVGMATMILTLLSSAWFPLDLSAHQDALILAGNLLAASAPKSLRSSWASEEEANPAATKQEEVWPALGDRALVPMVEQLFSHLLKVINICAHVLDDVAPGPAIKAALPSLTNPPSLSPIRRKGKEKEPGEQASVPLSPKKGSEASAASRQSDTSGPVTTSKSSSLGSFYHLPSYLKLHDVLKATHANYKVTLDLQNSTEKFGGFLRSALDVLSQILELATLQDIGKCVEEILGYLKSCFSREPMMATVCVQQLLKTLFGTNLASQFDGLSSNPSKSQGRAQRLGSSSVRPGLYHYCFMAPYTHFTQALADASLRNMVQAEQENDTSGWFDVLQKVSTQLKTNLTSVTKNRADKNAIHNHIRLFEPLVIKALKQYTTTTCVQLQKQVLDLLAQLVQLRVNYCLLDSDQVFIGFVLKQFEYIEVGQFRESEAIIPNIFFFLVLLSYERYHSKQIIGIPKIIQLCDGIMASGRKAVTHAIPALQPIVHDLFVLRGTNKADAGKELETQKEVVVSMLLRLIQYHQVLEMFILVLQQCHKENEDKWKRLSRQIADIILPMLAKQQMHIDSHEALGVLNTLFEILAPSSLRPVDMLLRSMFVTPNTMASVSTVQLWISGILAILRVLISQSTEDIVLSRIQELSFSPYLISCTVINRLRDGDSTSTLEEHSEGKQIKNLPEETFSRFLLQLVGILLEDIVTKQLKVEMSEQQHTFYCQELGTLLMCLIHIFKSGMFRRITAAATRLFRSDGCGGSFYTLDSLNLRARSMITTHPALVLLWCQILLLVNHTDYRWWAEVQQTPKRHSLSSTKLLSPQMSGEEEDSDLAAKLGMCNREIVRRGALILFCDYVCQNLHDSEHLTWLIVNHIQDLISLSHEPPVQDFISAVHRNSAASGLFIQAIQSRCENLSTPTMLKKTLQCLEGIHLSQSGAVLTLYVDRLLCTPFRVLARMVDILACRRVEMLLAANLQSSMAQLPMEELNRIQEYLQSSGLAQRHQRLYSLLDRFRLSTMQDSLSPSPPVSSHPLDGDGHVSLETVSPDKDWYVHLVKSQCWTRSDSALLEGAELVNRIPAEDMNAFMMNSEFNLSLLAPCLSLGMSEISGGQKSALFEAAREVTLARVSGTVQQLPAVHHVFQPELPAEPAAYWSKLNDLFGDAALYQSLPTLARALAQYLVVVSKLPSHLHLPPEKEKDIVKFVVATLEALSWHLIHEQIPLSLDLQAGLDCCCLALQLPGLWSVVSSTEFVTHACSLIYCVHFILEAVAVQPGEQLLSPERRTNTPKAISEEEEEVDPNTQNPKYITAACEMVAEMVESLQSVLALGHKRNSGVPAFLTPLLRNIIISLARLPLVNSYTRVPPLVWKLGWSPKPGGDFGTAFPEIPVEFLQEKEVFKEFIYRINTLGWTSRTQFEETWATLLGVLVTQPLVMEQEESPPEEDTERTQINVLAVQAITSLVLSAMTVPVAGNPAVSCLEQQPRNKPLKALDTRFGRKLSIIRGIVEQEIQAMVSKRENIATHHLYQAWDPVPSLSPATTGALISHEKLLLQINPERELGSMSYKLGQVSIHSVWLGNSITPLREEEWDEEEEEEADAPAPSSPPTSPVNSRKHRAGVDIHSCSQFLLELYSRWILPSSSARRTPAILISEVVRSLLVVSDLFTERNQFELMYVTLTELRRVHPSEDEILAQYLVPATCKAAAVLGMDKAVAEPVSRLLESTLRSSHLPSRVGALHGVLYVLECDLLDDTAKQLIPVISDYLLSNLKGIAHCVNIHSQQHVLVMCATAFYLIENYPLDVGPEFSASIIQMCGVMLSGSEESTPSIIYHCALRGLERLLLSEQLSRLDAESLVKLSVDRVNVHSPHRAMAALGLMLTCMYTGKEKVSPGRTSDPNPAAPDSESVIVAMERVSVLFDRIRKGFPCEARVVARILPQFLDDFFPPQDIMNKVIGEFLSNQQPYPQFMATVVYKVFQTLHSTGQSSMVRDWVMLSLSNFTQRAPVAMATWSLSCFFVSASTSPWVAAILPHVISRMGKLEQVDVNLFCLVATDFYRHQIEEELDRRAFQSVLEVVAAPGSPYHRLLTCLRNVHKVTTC
UniProt P54098: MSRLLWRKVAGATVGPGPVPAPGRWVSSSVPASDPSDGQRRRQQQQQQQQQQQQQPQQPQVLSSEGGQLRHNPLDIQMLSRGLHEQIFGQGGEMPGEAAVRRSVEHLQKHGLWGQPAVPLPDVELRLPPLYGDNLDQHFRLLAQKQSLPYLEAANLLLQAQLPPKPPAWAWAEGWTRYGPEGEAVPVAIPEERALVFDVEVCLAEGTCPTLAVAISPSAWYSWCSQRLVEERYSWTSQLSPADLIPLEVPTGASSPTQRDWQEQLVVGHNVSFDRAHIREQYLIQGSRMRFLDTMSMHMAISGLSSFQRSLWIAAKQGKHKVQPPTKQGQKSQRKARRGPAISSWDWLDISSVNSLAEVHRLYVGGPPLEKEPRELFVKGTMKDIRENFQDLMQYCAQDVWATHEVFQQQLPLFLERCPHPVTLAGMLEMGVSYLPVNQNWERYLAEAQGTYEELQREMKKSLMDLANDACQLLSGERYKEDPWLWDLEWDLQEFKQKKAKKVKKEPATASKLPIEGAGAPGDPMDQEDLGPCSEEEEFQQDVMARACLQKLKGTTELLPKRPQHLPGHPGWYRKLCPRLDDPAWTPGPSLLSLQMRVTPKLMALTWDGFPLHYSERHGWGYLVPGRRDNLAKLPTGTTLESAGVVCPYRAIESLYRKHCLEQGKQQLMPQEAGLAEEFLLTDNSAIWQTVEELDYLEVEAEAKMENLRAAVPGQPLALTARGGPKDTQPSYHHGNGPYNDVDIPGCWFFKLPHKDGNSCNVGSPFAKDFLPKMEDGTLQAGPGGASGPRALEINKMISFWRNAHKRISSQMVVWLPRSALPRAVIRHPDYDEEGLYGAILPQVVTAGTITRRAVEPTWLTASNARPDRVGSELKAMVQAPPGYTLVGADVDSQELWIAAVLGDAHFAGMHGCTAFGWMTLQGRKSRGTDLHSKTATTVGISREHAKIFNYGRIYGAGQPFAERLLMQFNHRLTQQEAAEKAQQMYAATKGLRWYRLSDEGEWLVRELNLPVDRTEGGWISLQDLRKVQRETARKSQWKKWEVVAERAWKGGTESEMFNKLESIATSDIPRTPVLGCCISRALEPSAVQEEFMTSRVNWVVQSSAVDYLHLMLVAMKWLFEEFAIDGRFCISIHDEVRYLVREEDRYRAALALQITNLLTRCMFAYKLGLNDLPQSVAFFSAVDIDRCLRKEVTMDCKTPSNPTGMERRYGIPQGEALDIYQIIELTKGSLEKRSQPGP
UniProt O00411, residues 42-1230: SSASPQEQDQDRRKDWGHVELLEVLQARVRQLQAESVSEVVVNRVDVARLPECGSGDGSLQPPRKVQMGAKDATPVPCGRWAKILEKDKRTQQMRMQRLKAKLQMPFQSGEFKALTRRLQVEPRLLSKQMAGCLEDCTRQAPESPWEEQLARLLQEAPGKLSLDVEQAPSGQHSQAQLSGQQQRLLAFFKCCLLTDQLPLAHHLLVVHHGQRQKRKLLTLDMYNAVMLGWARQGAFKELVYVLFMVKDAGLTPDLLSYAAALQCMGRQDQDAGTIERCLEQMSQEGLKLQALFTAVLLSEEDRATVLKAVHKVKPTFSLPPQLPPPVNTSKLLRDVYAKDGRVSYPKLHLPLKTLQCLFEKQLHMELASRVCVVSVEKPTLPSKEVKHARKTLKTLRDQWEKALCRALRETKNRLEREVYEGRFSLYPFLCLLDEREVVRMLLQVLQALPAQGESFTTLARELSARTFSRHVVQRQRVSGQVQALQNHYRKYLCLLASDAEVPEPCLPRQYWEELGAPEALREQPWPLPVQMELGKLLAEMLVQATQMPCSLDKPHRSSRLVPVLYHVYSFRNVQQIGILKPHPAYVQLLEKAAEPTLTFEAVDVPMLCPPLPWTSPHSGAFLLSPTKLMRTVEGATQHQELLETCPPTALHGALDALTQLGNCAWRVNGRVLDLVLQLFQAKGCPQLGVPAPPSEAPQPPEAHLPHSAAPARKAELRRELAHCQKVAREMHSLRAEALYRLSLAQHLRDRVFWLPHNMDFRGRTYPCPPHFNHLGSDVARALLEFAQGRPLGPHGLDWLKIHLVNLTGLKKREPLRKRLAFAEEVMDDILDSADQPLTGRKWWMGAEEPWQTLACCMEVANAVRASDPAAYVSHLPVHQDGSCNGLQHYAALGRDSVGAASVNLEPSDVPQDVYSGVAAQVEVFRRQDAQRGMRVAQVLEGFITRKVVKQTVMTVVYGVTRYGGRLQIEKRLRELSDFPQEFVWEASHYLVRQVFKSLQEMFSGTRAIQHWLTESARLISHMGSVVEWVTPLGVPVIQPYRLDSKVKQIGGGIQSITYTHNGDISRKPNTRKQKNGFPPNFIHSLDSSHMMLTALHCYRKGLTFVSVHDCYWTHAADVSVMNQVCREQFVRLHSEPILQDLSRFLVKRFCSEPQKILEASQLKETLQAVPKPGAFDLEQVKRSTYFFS

Legend:
[1] = molecular target: FLAG-tagged HTT-Q24 (SH-SY5Y, constitutively expressed) (human) (UniProt P42858); test: co-IP; mitochondrial extracts of SH-SY5Y cells constitutively expressing FLAG-HTT-Q24 immunoprecipitated with anti-FLAG Ab (F3165); western blot for endogenous proteins
[2] = molecular target: wtHTT-Q19 overexpressed in SH-SY5Y cells (FLAG-tagged full-length HTT) (human) (UniProt P42858); test: proximity ligation; Duolink PLA on fixed, permeabilised SH-SY5Y cells (control cells and cells overexpressing wtHTT-Q19), without and with glucose oxidase (300 ng/mL, 30 min); mitochondria stained with MitoTracker Red; signals increased after glucose oxidase (HTT-TFAM 3 to 4-fold)

Row | Substance | binding [1] | binding [2]
1 | POLGA (catalytic subunit of mitochondria-specific DNA polymerase gamma), endogenous (from UniProt P54098 1-1239) | binds | –
2 | mitochondrial RNA polymerase (POLRMT), endogenous (from UniProt O00411 42-1230) | binds | binds
3 | polynucleotide-kinase-3'-phosphatase (PNKP), endogenous (from UniProt Q96T60 1-521) | binds | binds
